# Assay results: PubChem BioAssay AID2685 (National Center for Advancing Translational Sciences (NCATS), 2010)
# Some of the results follow. Shown are side measurements of this screen, not its main read-out; they come without a call. Compounds called inactive in the main read-out are mostly missing here. Words in brackets tell the shape of the fitted curve; partial curves, single points and poor fits give uncertain potencies.
# Test: qHTS Assay for Lipid Storage Modulators in Drosophila S3 Cells;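 on cell number change: cells counted by Cell Tracker Red CMTPX staining in the red channel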
# Conditions: BODIPY lipid droplet fluorescence, 18-24 h; for cell number change: measured here: cell count max response, cells fed with added oleic acid
# Outline: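 Laser-scanning cytometry quantifies lipid droplet accumulation (500–530 nm total intensity; droplet/cell object ratio) in oleic acid-fed (400 uM added) Drosophila S3 cells treated with a concentration series. 20 uM Triacsin C defined 100% inhibition.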
# [1] = measured here: lipid fluorescence (Fed channel) AC50, cells fed with added oleic acid
# [2] = measured here: cell number channel AC50, cells fed with added oleic acid
Structure (SMILES),cell number change [%],AC50 [1],AC50 [2]
CC(=O)NC1=NN(C(C)=O)C(c2sccc2C)S1 (centres undefined),15.3,–,–
CCN1CCN(c2cc(C)c3cc(NC(=O)CCC(=O)N4CCN(c5ccccc5)CC4)ccc3n2)CC1,22.2,"20.6 µM [rising, partial curve]",–
COc1ccccc1CNC(=O)C1CCCN(S(=O)(=O)c2ccc3c(c2)C(C)(C)C(=O)N3C)C1 (centres undefined),5.09,"0.651 µM [rising, partial curve, poor fit]","0.259 µM [rising, full curve, poor fit]"
CC(=O)c1cccc(NC(=O)c2c(-c3c(F)cccc3Cl)noc2C)c1,-4.35,–,–
COc1ccc(S(=O)(=O)N2CCC(C(=O)Nc3cccc(C(C)=O)c3)CC2)cc1C,-4.74,"8.2 µM [rising, partial curve]",–
Cc1cccc(-c2nc3ccc(C(=O)NCCN4CCN(C)CC4)cc3nc2-c2cccc(C)c2)c1,-12.5,"29.1 µM [falling, single point]",–
CC1=CC(C)C(C(=O)O)C(C(=O)Nc2cccnc2)C1 (centres undefined),-15.1,"29.1 µM [rising, single point]",–
O=C1C2C3C=CC(C3=C3CCCCC3)C2C(=O)N1c1ccccc1 (centres undefined),77.5,–,"29.1 µM [rising, single point]"
COc1ccccc1C(=O)Nc1cccc(C(=O)N2CCOCC2)c1,-22.6,"0.517 µM [falling, full curve]",–
CNc1ccc(OC)cc1-n1cnc(-c2ccc([N+](=O)[O-])cc2)c1,-7.42,–,–
Cc1csc(=O)n1CCC(=O)OCC(=O)N(CC(C)C)c1c(N)n(Cc2ccccc2)c(=O)[nH]c1=O,-48,–,"16.4 µM [falling, partial curve, poor fit]"
O=C(COC(=O)c1cccs1)NCC1CCCCC1,-18.4,"6.51 µM [rising, single point]",–
CC(Sc1nc2c(c(=O)n(C)c(=O)n2C)n1Cc1cc2c(cc1Cl)OCO2)C(=O)O (centres undefined),4.67,"6.51 µM [rising, single point]",–
Cc1c(C(=O)OCC(=O)N2CCCC2)cccc1[N+](=O)[O-],31,–,–
COC(=O)c1cc(S(=O)(=O)NCCc2sccc2C)c[nH]1,–,"23.1 µM [falling, single point]",–
O=C(Cc1cccc(C(F)(F)F)c1)NCc1ccc(Cl)cc1,-4.77,–,"2.06 µM [rising, single point]"
CC(Sc1ncnc2sc(-c3ccccc3)cc12)C(=O)NCC1CCCO1 (centres undefined),18.9,"29.1 µM [rising, single point]",–
CCN(CC)S(=O)(=O)c1ccc(C(C)NC(=O)C2CCCN2C(=O)c2cccs2)cc1 (centres undefined),-55.6,"4.11 µM [falling, full curve]","3.66 µM [falling, full curve]"
COc1ccc(CNC(=O)c2cc3c(=O)[nH]c4ccccc4c3n2C)cc1,29.2,"0.651 µM [rising, partial curve]","0.0206 µM [rising, full curve, poor fit]"
O=C(Nc1nc(-c2ccc(Cl)s2)cs1)c1cccs1,-13.2,–,"6.51 µM [rising, single point]"

Structure (SMILES),cell number change [%],AC50 [1],AC50 [2]
COc1ccc(OC)c(-c2cc(C(=O)Nc3c(C)nn(Cc4ccc(Cl)cc4)c3C)no2)c1,0.812,"0.164 µM [rising, full curve, poor fit]",–
O=C(O)c1cccc(S(=O)(=O)Nc2ccc3c(c2)OCO3)c1,40.1,–,"1.3 µM [rising, full curve]"
Cc1ccccc1NC(=O)C1C2CC/C=C\CCC21 (centres undefined),11.6,"16.4 µM [rising, partial curve]",–
CCn1c(C)c(C2=CCN(S(=O)(=O)c3ccc(C)cc3)CC2)c2ccccc21,-3.66,"6.51 µM [falling, full curve, poor fit]",–
O=C(O)c1ccc2c(c1)C(=O)N(c1ccc(Cl)cn1)C2=O,-17.2,"0.13 µM [falling, full curve, poor fit]",–
O=C1c2cnc3nc(SCc4cccc(Cl)c4)nn3c2CC2c3ccccc3CCN12 (centres undefined),20.6,"0.00461 µM [falling, full curve, poor fit]",–
Cc1ccccc1-n1sc2cc(F)ccc2c1=O,-77.4,"20.6 µM [falling, partial curve]","29.1 µM [falling, single point]"
O=C(Nc1ccc(F)cc1F)c1noc2c1CCC2,3.51,–,–
Cc1ccccc1-n1nnnc1SCC(=O)NCC1(N2CCOCC2)CCCCC1,-3.3,"0.00517 µM [falling, full curve, poor fit]",–
COc1ccc(C(=O)COc2ccccc2N2C(=O)C3C4C=CC(C4)C3C2=O)cc1 (centres undefined),32.6,"8.2 µM [rising, partial curve]","0.00461 µM [rising, full curve, poor fit]"
CC1CCCN(c2ccc(C(=O)OCC(=O)N3c4ccccc4Sc4ccccc43)cc2[N+](=O)[O-])C1 (centres undefined),125,"8.2 µM [falling, partial curve]","16.4 µM [rising, partial curve, poor fit]"
CCn1cc(C(=O)O)c(=O)c2cc(F)c(N/N=C/c3ccccc3[N+](=O)[O-])cc21,56.3,"18.4 µM [rising, single point]","29.1 µM [rising, single point]"
Cc1ccc(SCc2nc(N)nc(Nc3ccccc3C)n2)c(C)c1,2.53,"29.1 µM [rising, single point]",–
CC(=O)NCCC(=O)NCC1(N(C)Cc2ccccc2)Cc2ccccc2C1,-0.739,"0.184 µM [rising, full curve, poor fit]",–
Cc1c(C(=O)Nc2ccc(S(=O)(=O)Nc3ncccn3)cc2)oc2ccc(Cl)cc12,35.7,–,"25.9 µM [rising, single point]"
CCOc1ccc(CCNC(=O)CN2C(=O)c3cccnc3Oc3ccc(C)cc32)cc1OCC,-32.9,"2.59 µM [falling, full curve]","8.2 µM [falling, partial curve]"
OC(CN1CCCC(C(F)(F)F)C1)c1ccccc1 (centres undefined),10.8,–,–
O=C(NCCNC(=O)c1cc(OCC(F)(F)F)ccc1OCC(F)(F)F)Nc1ccc(Cl)cc1,0.14,–,–
O=C(COc1ccc(Cl)cc1Cl)Nc1ccc(Cl)cn1,7.58,–,"2.06 µM [rising, partial curve, poor fit]"
COc1cccc(CNS(=O)(=O)c2c(C)nc3scc(C)n3c2=O)c1,-4.2,"29.1 µM [rising, single point]",–

# Random excerpt: 3 records from the list
Structure (SMILES),cell number change [%],AC50 [1],AC50 [2]
CC(Sc1nc2c(c(=O)n(C)c(=O)n2C)n1Cc1cc2c(cc1Cl)OCO2)C(=O)O (centres undefined),4.67,"6.51 µM [rising, single point]",–
COc1ccccc1C(=O)Nc1cccc(C(=O)N2CCOCC2)c1,-22.6,"0.517 µM [falling, full curve]",–
CC1=CC(C)C(C(=O)O)C(C(=O)Nc2cccnc2)C1 (centres undefined),-15.1,"29.1 µM [rising, single point]",–

# Additional records follow.

Structure (SMILES),cell number change [%],AC50 [1],AC50 [2]
O=C(c1cc(-c2ccncc2)nc2ccccc12)N1CCOCC1,–,"6.51 µM [rising, single point]",–
N#Cc1c(NC(=O)CSCC(=O)O)sc2c1CCCC2,1.22,"3.66 µM [falling, full curve, poor fit]",–
N#Cc1cccc(S(=O)(=O)NCC(=O)OCC(=O)NCc2ccccc2)c1,-9.74,"3.66 µM [rising, single point]",–
O=C(Nc1ccc(NC(=O)c2cccs2)cc1)c1cccs1,107,"0.58 µM [falling, single point]","25.9 µM [rising, partial curve]"
Cc1ccc(S(=O)(=O)Nc2ccccc2CNC2CCCCC2)cc1,-8.47,"0.731 µM [falling, full curve]","0.731 µM [falling, full curve, poor fit]"
CSc1nncc(/C(C)=N/O)n1,–,"6.51 µM [falling, single point]",–
COc1ccc(N(CC(=O)Nc2cccc(N(C)S(C)(=O)=O)c2)S(=O)(=O)c2ccccc2)cc1Cl,-13.8,"9.2 µM [falling, partial curve, poor fit]",–
Nc1nc(SCC(=O)N2CCCC2)[nH]c(=O)c1NC(=O)c1ccco1,-19,"3.66 µM [falling, full curve, poor fit]",–
Cc1n(Cc2ccccc2)c2ccccc2[n+]1Cc1ccccc1,-16.1,"29.1 µM [falling, single point]",–
CC(=O)Nc1ccc(S(=O)(=O)N2CCC(c3nc4ccccc4[nH]3)CC2)cc1,–,–,"0.13 µM [rising, full curve, poor fit]"
O=c1c2oc3ccccc3c2ncn1Cc1ccccc1F,–,"6.51 µM [falling, single point]",–
CC(C)(C)c1cc[n+](CC(=O)Nc2cc(C(F)(F)F)ccc2N2CCOCC2)cc1,-32.7,–,"0.00517 µM [falling, full curve, poor fit]"
O=C(c1cc(S(=O)(=O)N2CCOCC2)ccc1Cl)N1CCC(Cc2ccccc2)CC1,31.9,"29.1 µM [rising, partial curve, poor fit]","0.00411 µM [rising, full curve, poor fit]"
COc1cccc(CN(C)C(=O)c2ccc3nccnc3c2)c1,1.07,"0.082 µM [rising, full curve, poor fit]",–
COc1ccc(OCC(=O)N/N=C(\C)c2ccc(-n3ccnc3)cc2)cc1,38.6,"0.58 µM [rising, partial curve, poor fit]",–
O=C(Cc1ccc([N+](=O)[O-])cc1)c1c(O)cc(O)cc1O,14.6,"2.91 µM [rising, single point]",–
CC(=O)Nc1c(Cl)n(C(C)=O)c2ccccc12,10.5,"23.1 µM [rising, single point]",–
Oc1ccccc1/C=N/Nc1ncc(Br)cn1,-2.99,–,–
